Source: publication PMC5413060
These are yes or no findings as the source states them, for the method shown. For some of these results: Binding seen in cells or lysates may run through a third protein. Some results given as binding are weak or reduced against the parent protein; the word gives no strength. Each block holds one binder with its values, some of them ahead of it.

Experiments:
[1] = target: T1, SERRATE (SE) (Arabidopsis) (UniProt Q9ZVD0); assay: two-hybrid; yeast strain AH109 (Clontech); genes in pGBKT7 (Gal4 DNA binding domain) or pGADT7 (Gal4 activation domain); growth on -LTH medium with 3-AT to reduce autoactivation
T1 sequence: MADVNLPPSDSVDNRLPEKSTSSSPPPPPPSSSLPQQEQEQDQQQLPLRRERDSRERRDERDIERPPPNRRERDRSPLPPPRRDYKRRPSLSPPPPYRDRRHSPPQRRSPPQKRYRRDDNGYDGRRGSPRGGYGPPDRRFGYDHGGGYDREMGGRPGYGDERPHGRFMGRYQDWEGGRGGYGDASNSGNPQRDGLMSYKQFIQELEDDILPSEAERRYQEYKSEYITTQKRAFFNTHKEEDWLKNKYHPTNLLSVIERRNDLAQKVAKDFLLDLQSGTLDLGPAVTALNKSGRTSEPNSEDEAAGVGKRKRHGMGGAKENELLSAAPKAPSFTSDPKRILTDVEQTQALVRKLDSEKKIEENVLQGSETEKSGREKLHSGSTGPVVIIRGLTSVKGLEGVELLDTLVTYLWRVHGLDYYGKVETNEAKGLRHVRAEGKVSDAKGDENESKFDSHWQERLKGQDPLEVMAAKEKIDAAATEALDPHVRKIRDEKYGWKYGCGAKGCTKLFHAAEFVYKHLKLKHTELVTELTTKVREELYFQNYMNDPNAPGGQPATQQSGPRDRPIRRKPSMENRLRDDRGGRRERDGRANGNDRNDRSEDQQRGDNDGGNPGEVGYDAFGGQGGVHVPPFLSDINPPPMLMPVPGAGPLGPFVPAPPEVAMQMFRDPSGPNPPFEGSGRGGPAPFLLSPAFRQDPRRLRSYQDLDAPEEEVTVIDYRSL

[2] = target: T1, SERRATE (SE) (Arabidopsis); assay: split reporter; split luciferase complementation in wild type Arabidopsis protoplasts co-expressing cLUC and nLUC fusion proteins

binding [1]: binds
binding [2]: binds
B1: SnRK2.2 (enzyme, UniProt Q39192 1-362)
chain: MDPATNSPIMPIDLPIMHDSDRYDFVKDIGSGNFGVARLMTDRVTKELVAVKYIERGEKIDENVQREIINHRSLRHPNIVRFKEVILTPSHLAIVMEYAAGGELYERICNAGRFSEDEARFFFQQLISGVSYCHAMQICHRDLKLENTLLDGSPAPRLKICDFGYSKSSVLHSQPKSTVGTPAYIAPEILLRQEYDGKLADVWSCGVTLYVMLVGAYPFEDPQEPRDYRKTIQRILSVTYSIPEDLHLSPECRHLISRIFVADPATRITIPEITSDKWFLKNLPGDLMDENRMGSQFQEPEQPMQSLDTIMQIISEATIPTVRNRCLDDFMADNLDLDDDMDDFDSESEIDVDSSGEIVYAL

binding [1]: binds
binding [2]: binds
B2: SnRK2.3 (enzyme, UniProt Q39193 1-361)
chain: MDRAPVTTGPLDMPIMHDSDRYDFVKDIGSGNFGVARLMRDKLTKELVAVKYIERGDKIDENVQREIINHRSLRHPNIVRFKEVILTPTHLAIIMEYASGGELYERICNAGRFSEDEARFFFQQLLSGVSYCHSMQICHRDLKLENTLLDGSPAPRLKICDFGYSKSSVLHSQPKSTVGTPAYIAPEVLLRQEYDGKIADVWSCGVTLYVMLVGAYPFEDPEEPRDYRKTIQRILSVKYSIPDDIRISPECCHLISRIFVADPATRISIPEIKTHSWFLKNLPADLMNESNTGSQFQEPEQPMQSLDTIMQIISEATIPAVRNRCLDDFMTDNLDLDDDMDDFDSESEIDIDSSGEIVYAL
